Test results as given in paper PMC11330772, “Unveiling the kinetic versatility of aryl-alcohol oxidases with different electron acceptors” (Frontiers in Bioengineering and Biotechnology, 2024).

System: PeAAO
Assay: Stopped-flow oxidative half-reaction (flavin reoxidation by O2 or BQ)
Conditions: PeAAO versus BaAAO

Compound	PeAAO more efficient at reducing the acceptor than BaAAO (reoxidation rates)
O=C1C=CC(=O)C=C1 [BQ, 1,4-benzoquinone]	≤ 9 fold
O=O [O2]	up to 6 fold
